# Laboratory results taken from the supplement of paper PMC8728848.
# This is one part of the list.
# B1: 4F2hc (Homo sapiens), P08195 (protein)
# chain: WWHTGALYRIGDLQAFQGHGAGNLAGLKGRLDYLSSLKVKGLVLGPIHKNQKDDVAQTDLLQIDPNFGSKEDFDSLLQSAKKKSIRVILDLTPNYRGENSWFSTQVDTVATKVKDALEFWLQAGVDGFQVRDIENLKDASSFLAEWQNITKGFSEDRLLIAGTNSSDLQQILSLLESNKDLLLTSSYLSDSGSTGEHTKSLVTQYLNATGNRWCSWSLSQARLLTSFLPAQLLRLYQLMLFTLPGTPVFSYGDEIGLDAAALPGQPMEAPVMLWDESSFPDIPGAVSANMTVKGQSEDPGSLLSLFRRLSDQRSKERSLLHGDFHAFSAGPGLFSYIRHWDQNERFLVVLNFGDVGLSAGLQASDLPASASLPAKADLLLSTQPGREEGSPLELERLKLEPHEGLLLRFPYAA
# Experiments:
# Assay in all cases: glycan array binding signal (z-score within array); higher = stronger binding
# Conditions in all cases: glycan notation: IUPAC condensed, linker removed
# Fuc(a1-2)Gal = molecular target: Fuc(a1-2)Gal
# Outline: (§1)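 The binding signal is a Z-score computed within each array. Data were drawn from 3228 arrays in the Consortium for Functional Glycomics database, restricted to those with a known protein sequence. Scores were averaged over arrays of the same protein sequence at different concentrations or buffers, and over linkers, and negative values can be taken as non-binding.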
# Fuc(a1-2)Gal(b1-3)GalNAc = molecular target: Fuc(a1-2)Gal(b1-3)GalNAc
# Outline: as §1
# [1] = molecular target: Fuc(a1-2)Gal(b1-3)GalNAc(b1-3)Gal
# Outline: as §1
# [2] = molecular target: Fuc(a1-2)Gal(b1-3)GalNAc(b1-3)Gal(a1-4)Gal(b1-4)Glc
# Outline: as §1
# [3] = molecular target: Fuc(a1-2)Gal(b1-3)GalNAc(b1-4)[Neu5Ac(a2-3)]Gal(b1-4)Glc
# Outline: as §1
# Fuc(a1-2)Gal(b1-3)GlcNAc = molecular target: Fuc(a1-2)Gal(b1-3)GlcNAc
# Outline: as §1
# [4] = molecular target: Fuc(a1-2)Gal(b1-3)GlcNAc(b1-2)Man(a1-3)[Fuc(a1-2)Gal(b1-3)GlcNAc(b1-2)Man(a1-6)]Man(b1-4)GlcNAc(b1-4)GlcNAc
# Outline: as §1
# [5] = molecular target: Fuc(a1-2)Gal(b1-3)GlcNAc(b1-3)Gal(b1-4)Glc
# Outline: as §1
# [6] = molecular target: Fuc(a1-2)Gal(b1-3)GlcNAc(b1-3)[Gal(b1-4)[Fuc(a1-3)]GlcNAc(b1-6)]Gal(b1-4)Glc
# Outline: as §1
# [7] = molecular target: Fuc(a1-2)Gal(b1-3)[Fuc(a1-4)]GlcNAc
# Outline: as §1
# [8] = molecular target: Fuc(a1-2)Gal(b1-3)[Fuc(a1-4)]GlcNAc(b1-2)Man(a1-3)[Fuc(a1-2)Gal(b1-3)[Fuc(a1-4)]GlcNAc(b1-2)Man(a1-6)]Man(b1-4)GlcNAc(b1-4)GlcNAc
# Outline: as §1
# Fuc(a1-2)Gal(b1-4)Glc = molecular target: Fuc(a1-2)Gal(b1-4)Glc
# Outline: as §1
# Fuc(a1-2)Gal(b1-4)Glc6S = molecular target: Fuc(a1-2)Gal(b1-4)Glc6S
# Outline: as §1
# Fuc(a1-2)Gal(b1-4)GlcNAc = molecular target: Fuc(a1-2)Gal(b1-4)GlcNAc
# Outline: as §1
# [9] = molecular target: Fuc(a1-2)Gal(b1-4)GlcNAc(b1-2)Man(a1-3)[Fuc(a1-2)Gal(b1-4)GlcNAc(b1-2)Man(a1-6)]Man(b1-4)GlcNAc(b1-4)GlcNAc
# Outline: as §1
# [10] = molecular target: Fuc(a1-2)Gal(b1-4)GlcNAc(b1-3)Gal(b1-4)GlcNAc
# Outline: as §1
# [11] = molecular target: Fuc(a1-2)Gal(b1-4)GlcNAc(b1-3)Gal(b1-4)GlcNAc(b1-3)Gal(b1-4)GlcNAc
# Outline: as §1
# [12] = molecular target: Fuc(a1-2)Gal(b1-4)GlcNAc6S
# Outline: as §1
# [13] = molecular target: Fuc(a1-2)Gal(b1-4)[Fuc(a1-3)]GlcNAc
# Outline: as §1
# [14] = molecular target: Fuc(a1-2)Gal(b1-4)[Fuc(a1-3)]GlcNAc(b1-2)Man(a1-3)[Fuc(a1-2)Gal(b1-4)[Fuc(a1-3)]GlcNAc(b1-2)Man(a1-6)]Man(b1-4)GlcNAc(b1-4)GlcNAc
# Outline: as §1
# [15] = molecular target: Fuc(a1-2)Gal(b1-4)[Fuc(a1-3)]GlcNAc(b1-3)Gal(b1-4)[Fuc(a1-3)]GlcNAc
# Outline: as §1
# [16] = molecular target: Fuc(a1-2)Gal(b1-4)[Fuc(a1-3)]GlcNAc(b1-3)Gal(b1-4)[Fuc(a1-3)]GlcNAc(b1-3)Gal(b1-4)[Fuc(a1-3)]GlcNAc
# Outline: as §1
# Fuc(a1-2)Gal6S(b1-4)Glc = molecular target: Fuc(a1-2)Gal6S(b1-4)Glc
# Outline: as §1
# [17] = molecular target: Fuc(a1-2)Gal6S(b1-4)Glc6S
# Outline: as §1
# [18] = molecular target: Fuc(a1-2)Gal6S(b1-4)GlcNAc
# Outline: as §1
# Fuc(a1-2)[Gal(a1-3)]Gal = molecular target: Fuc(a1-2)[Gal(a1-3)]Gal
# Outline: as §1
# [19] = molecular target: Fuc(a1-2)[Gal(a1-3)]Gal(b1-3)GlcNAc
# Outline: as §1
# [20] = molecular target: Fuc(a1-2)[Gal(a1-3)]Gal(b1-3)GlcNAc(b1-2)Man(a1-3)[Fuc(a1-2)[Gal(a1-3)]Gal(b1-3)GlcNAc(b1-2)Man(a1-6)]Man(b1-4)GlcNAc(b1-4)GlcNAc
# Outline: as §1
# [21] = molecular target: Fuc(a1-2)[Gal(a1-3)]Gal(b1-4)Glc
# Outline: as §1
# [22] = molecular target: Fuc(a1-2)[Gal(a1-3)]Gal(b1-4)GlcNAc
# Outline: as §1
# [23] = molecular target: Fuc(a1-2)[Gal(a1-3)]Gal(b1-4)GlcNAc(b1-2)Man(a1-3)[Fuc(a1-2)[Gal(a1-3)]Gal(b1-4)GlcNAc(b1-2)Man(a1-6)]Man(b1-4)GlcNAc(b1-4)GlcNAc
# Outline: as §1
# [24] = molecular target: Fuc(a1-2)[Gal(a1-3)]Gal(b1-4)[Fuc(a1-3)]GlcNAc
# Outline: as §1
# [25] = molecular target: Fuc(a1-2)[Gal(a1-4)]Gal(b1-4)GlcNAc
# Outline: as §1
# [26] = molecular target: Fuc(a1-2)[GalNAc(a1-3)]Gal
# Outline: as §1
# [27] = molecular target: Fuc(a1-2)[GalNAc(a1-3)]Gal(b1-3)GlcNAc
# Outline: as §1
# [28] = molecular target: Fuc(a1-2)[GalNAc(a1-3)]Gal(b1-3)GlcNAc(b1-2)Man(a1-3)[Fuc(a1-2)[GalNAc(a1-3)]Gal(b1-3)GlcNAc(b1-2)Man(a1-6)]Man(b1-4)GlcNAc(b1-4)GlcNAc
# Outline: as §1
# [29] = molecular target: Fuc(a1-2)[GalNAc(a1-3)]Gal(b1-4)Glc
# Outline: as §1
# [30] = molecular target: Fuc(a1-2)[GalNAc(a1-3)]Gal(b1-4)GlcNAc
# Outline: as §1
# [31] = molecular target: Fuc(a1-2)[GalNAc(a1-3)]Gal(b1-4)GlcNAc(b1-2)Man(a1-3)[GalNAc(a1-3)[Fuc(a1-2)]Gal(b1-4)GlcNAc(b1-2)Man(a1-6)]Man(b1-4)GlcNAc(b1-4)GlcNAc
# Outline: as §1
# [32] = molecular target: Fuc(a1-2)[GalNAc(a1-3)]Gal(b1-4)GlcNAc(b1-3)Gal(b1-4)GlcNAc
# Outline: as §1
# [33] = molecular target: Fuc(a1-2)[GalNAc(a1-3)]Gal(b1-4)GlcNAc(b1-3)Gal(b1-4)GlcNAc(b1-3)Gal(b1-4)GlcNAc
# Outline: as §1
# [34] = molecular target: Fuc(a1-2)[GalNAc(a1-3)]Gal(b1-4)[Fuc(a1-3)]GlcNAc
# Outline: as §1
# [35] = molecular target: Fuc(a1-2)[GalNAc(a1-4)]Gal(b1-4)GlcNAc
# Outline: as §1
# [36] = molecular target: Fuc(a1-2)[GalNAc(b1-3)]Gal
# Outline: as §1
# Fuc(a1-3)GlcNAc = molecular target: Fuc(a1-3)GlcNAc
# Outline: as §1
# [37] = molecular target: Fuc(a1-3)[Gal(b1-4)]Glc6S
# Outline: as §1
# [38] = molecular target: Fuc(a1-3)[Gal(b1-4)]GlcNAc
# Outline: as §1
# [39] = molecular target: Fuc(a1-3)[Gal(b1-4)]GlcNAc(b1-2)Man(a1-3)[Fuc(a1-3)[Gal(b1-4)]GlcNAc(b1-2)Man(a1-6)]Man(b1-4)GlcNAc(b1-4)GlcNAc
# Outline: as §1
# [40] = molecular target: Fuc(a1-3)[Gal(b1-4)]GlcNAc(b1-2)Man(a1-6)[Gal(b1-4)GlcNAc(b1-2)Man(a1-3)]Man(b1-4)GlcNAc(b1-4)GlcNAc
# Outline: as §1
# [41] = molecular target: Fuc(a1-3)[Gal(b1-4)]GlcNAc(b1-3)Gal(b1-3)[Fuc(a1-4)]GlcNAc
# Outline: as §1
# [42] = molecular target: Fuc(a1-3)[Gal(b1-4)]GlcNAc(b1-4)Gal(b1-4)[Fuc(a1-3)]GlcNAc
# Outline: as §1
# [43] = molecular target: Fuc(a1-3)[Gal(b1-4)]GlcNAc(b1-4)Gal(b1-4)[Fuc(a1-3)]GlcNAc(b1-4)Gal(b1-4)[Fuc(a1-3)]GlcNAc
# Outline: as §1
# [44] = molecular target: Fuc(a1-3)[Gal(b1-4)]GlcNAc6S
# Outline: as §1
# [45] = molecular target: Fuc(a1-3)[Gal3S(b1-4)]Glc6S
# Outline: as §1
# [46] = molecular target: Fuc(a1-3)[Gal3S(b1-4)]GlcNAc
# Outline: as §1
# [47] = molecular target: Fuc(a1-3)[Gal3S(b1-4)]GlcNAc6S
# Outline: as §1
# [48] = molecular target: Fuc(a1-3)[GalNAc(b1-4)]GlcNAc
# Outline: as §1
# [49] = molecular target: Fuc(a1-3)[Neu5Ac(a2-3)]Gal(b1-4)GlcNAc(b1-3)GalNAc
# Outline: as §1
# Fuc(a1-4)GlcNAc = molecular target: Fuc(a1-4)GlcNAc
# Outline: as §1
# Fuc(b1-3)GlcNAc = molecular target: Fuc(b1-3)GlcNAc
# Outline: as §1
binder,measurement,setting,value
B1,glycan array binding signal (z-score),Fuc(a1-2)Gal,-0.463
same,glycan array binding signal (z-score),Fuc(a1-2)Gal(b1-3)GalNAc,1.57
same,glycan array binding signal (z-score),[1],-0.349
same,glycan array binding signal (z-score),[2],-0.609
same,glycan array binding signal (z-score),[3],0.444
same,glycan array binding signal (z-score),Fuc(a1-2)Gal(b1-3)GlcNAc,-0.589
same,glycan array binding signal (z-score),[4],-0.859
same,glycan array binding signal (z-score),[5],-0.548
same,glycan array binding signal (z-score),[6],1.24
same,glycan array binding signal (z-score),[7],-0.964
same,glycan array binding signal (z-score),[8],-0.402
same,glycan array binding signal (z-score),Fuc(a1-2)Gal(b1-4)Glc,-0.723
same,glycan array binding signal (z-score),Fuc(a1-2)Gal(b1-4)Glc6S,-1.04
same,glycan array binding signal (z-score),Fuc(a1-2)Gal(b1-4)GlcNAc,0.985
same,glycan array binding signal (z-score),[9],-0.399
same,glycan array binding signal (z-score),[10],0.51
same,glycan array binding signal (z-score),[11],0.737
same,glycan array binding signal (z-score),[12],-0.129
same,glycan array binding signal (z-score),[13],0.492
same,glycan array binding signal (z-score),[14],0.184
same,glycan array binding signal (z-score),[15],-0.122
same,glycan array binding signal (z-score),[16],-0.346
same,glycan array binding signal (z-score),Fuc(a1-2)Gal6S(b1-4)Glc,0.052
same,glycan array binding signal (z-score),[17],-0.953
same,glycan array binding signal (z-score),[18],-1.01
same,glycan array binding signal (z-score),Fuc(a1-2)[Gal(a1-3)]Gal,-0.718
same,glycan array binding signal (z-score),[19],0.071
same,glycan array binding signal (z-score),[20],-0.902
same,glycan array binding signal (z-score),[21],-0.23
same,glycan array binding signal (z-score),[22],0.547
same,glycan array binding signal (z-score),[23],-0.107
same,glycan array binding signal (z-score),[24],1.16
same,glycan array binding signal (z-score),[25],2.24
same,glycan array binding signal (z-score),[26],0.845
same,glycan array binding signal (z-score),[27],-0.297
same,glycan array binding signal (z-score),[28],-0.757
same,glycan array binding signal (z-score),[29],6.38
same,glycan array binding signal (z-score),[30],-0.63
same,glycan array binding signal (z-score),[31],-0.199
same,glycan array binding signal (z-score),[32],1.59
same,glycan array binding signal (z-score),[33],1.26
same,glycan array binding signal (z-score),[34],0.679
same,glycan array binding signal (z-score),[35],-0.82
same,glycan array binding signal (z-score),[36],-0.198
same,glycan array binding signal (z-score),Fuc(a1-3)GlcNAc,-0.586
same,glycan array binding signal (z-score),[37],1.75
same,glycan array binding signal (z-score),[38],0.304
same,glycan array binding signal (z-score),[39],-0.966
same,glycan array binding signal (z-score),[40],-0.963
same,glycan array binding signal (z-score),[41],1.58
same,glycan array binding signal (z-score),[42],0.937
same,glycan array binding signal (z-score),[43],-1.11
same,glycan array binding signal (z-score),[44],2.68
same,glycan array binding signal (z-score),[45],-1.06
same,glycan array binding signal (z-score),[46],0.651
same,glycan array binding signal (z-score),[47],1.29
same,glycan array binding signal (z-score),[48],-0.392
same,glycan array binding signal (z-score),[49],-0.098
same,glycan array binding signal (z-score),Fuc(a1-4)GlcNAc,-0.807
same,glycan array binding signal (z-score),Fuc(b1-3)GlcNAc,-0.415

# Looked up one by one from above, two records:
binder,measurement,setting,value
B1,glycan array binding signal (z-score),[29],6.38
same,glycan array binding signal (z-score),[16],-0.346
